Results published in PubChem BioAssay AID2517 (National Center for Advancing Translational Sciences (NCATS), 2010).
Where “and” joins values, the source holds several entries; their conditions need not be identical. Equal entries are not always repeated. Out of some 350,000 compounds screened, about 1,200 (0.34%) were called active. The shares of active, inactive and inconclusive entries below differ from those in the screen. The call rests on the fitted dose curve; in most records, active means well fitted inhibition curve with a large enough effect; inconclusive means small, poorly fitted or top-dose-only effect; inactive means no such curve, though single readings can be large or run the other way. Where the call is inconclusive, the potency comes from a doubtful curve fit. Starred links: 1 amine or outer side, 2 acyl side, 3 side chain; linkers in the order of their positions; H or OH if unused. Positions of bridges follow the written chain, without caps; N, C: chain ends. Non-standard residues stand in square brackets, D forms with d. Residues, ends and D or L forms follow the SMILES beside them. Chains are numbered I, II in the order given. Actinocin(9to1) = Cc1c2oc3c(C)ccc(C(=O)[*:1])c3nc-2c(C(=O)[*:2])c(N)c1=O; NMeV = CN[C@H](C(=O)O)C(C)C; Sar = CNCC(=O)O

Sequences of proteins named here, by UniProt entry; tags and fusion partners are left off.
UniProt P27695, whole entry, looked up: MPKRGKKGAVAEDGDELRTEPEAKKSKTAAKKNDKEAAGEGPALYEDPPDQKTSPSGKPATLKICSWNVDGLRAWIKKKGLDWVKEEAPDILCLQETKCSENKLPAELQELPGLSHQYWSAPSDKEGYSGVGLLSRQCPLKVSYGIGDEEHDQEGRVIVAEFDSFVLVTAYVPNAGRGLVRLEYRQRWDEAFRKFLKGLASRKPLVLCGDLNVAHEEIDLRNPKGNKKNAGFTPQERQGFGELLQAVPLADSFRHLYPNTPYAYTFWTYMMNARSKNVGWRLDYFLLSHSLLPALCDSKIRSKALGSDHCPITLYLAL

Target: DNA repair nuclease/redox regulator APEX1 (Homo sapiens) (UniProt P27695)
Assay: qHTS Assay for Inhibitors of the Human Apurinic/apyrimidinic Endonuclease 1 (APE1); further: nearly all actives have a fitted effect of over 55% in size;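 on activity change, negative = inhibition: plate controls were vehicle for no effect and reference inhibitor for full effect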
Conditions: recombinant APE1, TAMRA/BHQ-2 abasic DNA cleavage fluorescence; activity change, negative = inhibition: at 65.8 µM (top of the series)
Procedure, shortened: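 Activity was derived from the fluorescence gain between first and third kinetic reads (60 s intervals, ex 525/em 598 nm) after 50 nM THF-abasic TAMRA/BHQ-2 duplex was added to 0.75 nM APE1 preincubated 15 min with compound.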
Potency means the concentration at half of the fitted maximal effect.

| Structure (SMILES) | Potency | activity change, negative = inhibition |
| --- | --- | --- |
| CCOc1ccc(NS(=O)(=O)c2ccc(NS(=O)(=O)c3ccc(SC)cc3)cc2)cc1 | inconclusive: 44.7 µM [inhibitor, single point] | – |
| CN(C)/C=C/C1=C([N+](=O)[O-])C(c2cccc([N+](=O)[O-])c2)NC(=O)N1 (stereo not given) | inconclusive: 35.5 µM [inhibitor, single point] | – |
| Cc1ccccc1NC(=S)C1=C(O)c2sccc2N(C)S1(=O)=O | inconclusive: 44.7 µM [inhibitor, single point] | – |
| CCCOc1ccc(CSc2ncn[nH]2)cc1 | inconclusive: 0.891 µM [inhibitor, full curve, poor fit] | – |
| CNc1ccccc1C(=O)OC | inactive | – |
| CCOc1ccc(N(C(=O)OC(C)(C)C)C(=O)c2ccc(O[Si](C)(C)C(C)(C)C)cc2)c(I)c1 | inactive | – |
| O=C(c1ccc(COc2ccc(F)cc2)o1)n1cc(Br)cn1 | inconclusive: 31.6 µM [inhibitor, single point] | – |
| COc1ccc(CCn2c(N)c(C(=O)NCc3ccco3)c3nc4ccccc4nc32)cc1OC | inconclusive: 28.2 µM [inhibitor, single point] | – |
| On1onc2c3cc(-c4ccccc4)nc3ccc21 | inconclusive: 44.7 µM [inhibitor, single point] | – |
| CCOc1cc(/C=N/Nc2cccc(C(=O)O)c2)ccc1OCC(=O)N1CCCCC1 | inconclusive: 44.7 µM [inhibitor, single point] | – |
| CCCCS(=O)(=O)N1CCc2nc(COc3ccccc3)c3c(c2C1)CO[C@@H](C)C3 | – | inactive: 11% [at 12.4 µM] |
| COc1ccc(/C=C2\SC(=S)N(CCC(=O)Nc3cccc(C(=O)O)c3)C2=O)cc1 | inactive | – |
| O=C(CCc1c[nH]c2ccccc12)N1CCCC1 | inconclusive: 37.7 µM [inhibitor, single point] | – |
| O=C(CCc1ccccc1)NNC(=O)c1ccc(NC(=O)c2ccccc2)cc1 | inconclusive: 28.2 µM [inhibitor, partial curve] | – |
| O=C(COC(=O)c1ccc([N+](=O)[O-])s1)Nc1ccc(F)cc1 | inconclusive: 23.8 µM [inhibitor, single point] | – |
| O=C(C1CCCN1S(=O)(=O)c1cccc2cccnc12)N1CCN(c2ccccc2)CC1 (stereo not given) | inconclusive: 12.6 µM [inhibitor, partial curve, poor fit] | – |
| Cc1ccc2nc(Nc3nc(C)cc(-c4ccccc4)n3)[nH]c(=O)c2c1 | inconclusive: 5.62 µM [inhibitor, full curve, poor fit] | – |
| O=C(Nc1nc(-c2ccccc2)cs1)c1cccs1 | inconclusive: 44.7 µM [inhibitor, single point] | – |
| O=C(Nc1ccc(S(=O)(=O)Nc2nccs2)cc1)c1cnc(Cl)c(Cl)c1 | inconclusive: 31.6 µM [inhibitor, single point] | – |
| CC(C)Cc1ccc(C(C)C(=O)Nc2ccc(O)cc2)cc1 (stereo not given) | inconclusive: 3.55 µM [inhibitor, full curve] | – |
| CC1C(=O)OC2CC34C5CC(C(C)(C)C)C36C(OC(=O)C6O)OC4(C(=O)O5)C21O (stereo not given) | inactive | – |
| CC(=O)c1ccc(S(=O)(=O)N2Cc3ccccc3CC2C(=O)O)cc1 (stereo not given) | inconclusive: 10 µM [inhibitor, partial curve] | – |

| Structure (SMILES) | Potency | activity change, negative = inhibition |
| --- | --- | --- |
| Cc1c2oc3c(C)ccc(C(=O)N[C@@H]4C(=O)N[C@H](C(C)C)C(=O)N5CCC[C@H]5C(=O)N(C)CC(=O)N(C)[C@@H](C(C)C)C(=O)O[C@@H]4C)c3nc-2c(C(=O)N[C@@H]2C(=O)N[C@H](C(C)C)C(=O)N3CCC[C@H]3C(=O)N(C)CC(=O)N(C)[C@@H](C(C)C)C(=O)O[C@@H]2C)c(N)c1=O (I: T[dV]P[Sar][NMeV] / II: T[dV]P[Sar][NMeV]; ester I:1-I:C, II:1-II:C; linker I:N-II:N via Actinocin(9to1)) | active: 12.6 µM | – |
| O=C(COC(=O)c1ccccc1OCc1ccccc1Cl)NC1CC1 | inactive | – |
| COc1cc([N+](=O)[O-])ccc1NC(=S)N1CCN(c2ccccn2)CC1 | inconclusive: 44.7 µM [inhibitor, single point] | – |
| CN=C(c1ccco1)n1c(=S)nc(-c2ccco2)n(C)c1=S | inconclusive: 39.8 µM [inhibitor, single point] | – |
| CCOC(=O)c1sc(Nc2ccc(OCC)cc2)nc1C | inactive | – |
| COc1ccc(O)c(C(=O)c2coc(=N)c(C(=O)Nc3ccc(SC(F)F)cc3)c2)c1 | inconclusive: 56.2 µM [inhibitor, partial curve, poor fit] | – |
| Cc1cc(=O)[nH]c(SCC(=O)c2ccc(O)c(O)c2)n1 | inactive | – |
| COc1cccc(/C=C2\N=C(SC)SC2=O)c1OC | inconclusive: 44.7 µM [inhibitor, single point] | – |
| O=C(Cc1ccccc1)NN1C(=O)/C(=C/c2ccccc2C(=O)O)SC1=S | inconclusive: 50.1 µM [inhibitor, single point] | – |
| CCCCOc1ccc(NC(=O)c2cc(F)c(F)cc2Cl)cc1 | inconclusive: 5.01 µM [inhibitor, single point] | – |
| O=C(Nc1ccc(O)c(-c2nc3ccccc3o2)c1)C1(c2ccc(Cl)cc2)CCCC1 | inactive | – |
| COc1ccc(C2=CC(=O)OC3(CCCCC3)O2)cc1 | inconclusive: 44.7 µM [inhibitor, single point] | – |
| COc1ccccc1-n1c(N)c(C(N)=O)sc1=S | inconclusive: 44.7 µM [inhibitor, single point] | – |
| CCN(CC)C(=O)c1c[nH]c2ccc(S(=O)(=O)Nc3cc(C)cc(C)c3)cc2c1=O | inactive | – |
| O=S(=O)(NCC(O)COCc1ccco1)c1cccs1 (stereo not given) | inconclusive: 35.5 µM [inhibitor, single point] | – |
| O=C(Nc1cccc(F)c1)C1CCCN(S(=O)(=O)c2cccc3cccnc23)C1 (stereo not given) | inactive | – |
| COC(=O)[C@H](C)NC(=O)[C@@H](C)CO | – | inactive: 26.8% [at 12.4 µM] |
| O=C(N/N=C/c1c[nH]c2ccccc12)c1sc2ccccc2c1Cl | inactive | – |
| COc1ccc2c(c1)c(=O)oc1cc3occ(C(C)(C)C)c3cc12 | inconclusive: 28.2 µM [inhibitor, single point] | – |
| NC1=NC(=O)/C(=C/c2cccc(F)c2)S1 | inactive | – |
| Cc1nc(N=Nc2cc(S(=O)(=O)O)c3cc([N+](=O)[O-])cc(S(=O)(=O)O)c3c2)c(COP(=O)(O)O)c(C=O)c1O | active: 2 µM and active: 7.94 µM and active: 2.51 µM | – |
| Cc1ccc(C(O)C2=CCCC2=O)cc1 (stereo not given) | inactive | – |

3 consecutive entries out of the list so far, quoted:

| Structure (SMILES) | Potency | activity change, negative = inhibition |
| --- | --- | --- |
| Cc1cc(=O)[nH]c(SCC(=O)c2ccc(O)c(O)c2)n1 | inactive | – |
| COc1cccc(/C=C2\N=C(SC)SC2=O)c1OC | inconclusive: 44.7 µM [inhibitor, single point] | – |
| O=C(Cc1ccccc1)NN1C(=O)/C(=C/c2ccccc2C(=O)O)SC1=S | inconclusive: 50.1 µM [inhibitor, single point] | – |

Ordered by molar mass (smallest number first): 3 of the compounds above.

| Structure (SMILES) | Potency | activity change, negative = inhibition |
| --- | --- | --- |
| O=C(COC(=O)c1ccccc1OCc1ccccc1Cl)NC1CC1 | inactive | – |
| Cc1nc(N=Nc2cc(S(=O)(=O)O)c3cc([N+](=O)[O-])cc(S(=O)(=O)O)c3c2)c(COP(=O)(O)O)c(C=O)c1O | active: 2 µM and active: 7.94 µM and active: 2.51 µM | – |
| Cc1c2oc3c(C)ccc(C(=O)N[C@@H]4C(=O)N[C@H](C(C)C)C(=O)N5CCC[C@H]5C(=O)N(C)CC(=O)N(C)[C@@H](C(C)C)C(=O)O[C@@H]4C)c3nc-2c(C(=O)N[C@@H]2C(=O)N[C@H](C(C)C)C(=O)N3CCC[C@H]3C(=O)N(C)CC(=O)N(C)[C@@H](C(C)C)C(=O)O[C@@H]2C)c(N)c1=O (I: T[dV]P[Sar][NMeV] / II: T[dV]P[Sar][NMeV]; ester I:1-I:C, II:1-II:C; linker I:N-II:N via Actinocin(9to1)) | active: 12.6 µM | – |

More results follow.

| Structure (SMILES) | Potency | activity change, negative = inhibition |
| --- | --- | --- |
| Cc1cc(=O)n2ncnc2n1COCCO | inconclusive: 35.5 µM [inhibitor, single point] | – |
| NC(=O)C1Cc2ccccc2CN1S(=O)(=O)c1cccs1 (stereo not given) | inactive | – |
| O=C(CSc1ccccn1)Nc1ccc2ccccc2c1 | inconclusive: 5.62 µM [inhibitor, partial curve, poor fit] | – |
| Cc1sc2ncn(CC(=O)NCCc3ccccc3)c(=O)c2c1C | inconclusive: 3.98 µM [inhibitor, single point] | – |
| NC(=O)C1CCCN(C(=O)c2ccc(Cl)c(S(=O)(=O)N3CCc4ccccc43)c2)C1 (stereo not given) | inconclusive: 15 µM [inhibitor, single point] | – |
| NC[C@H]1O[C@H](O[C@H]2[C@H](O)[C@@H](O[C@H]3O[C@H](CO)[C@@H](O)[C@H](N)[C@H]3O)[C@H](N)C[C@@H]2N)[C@H](N)[C@@H](O)[C@@H]1O | inactive | – |
| COc1ccc(C(c2sc3nc(C)nn3c2O)N2CCN(Cc3ccccc3)CC2)cc1OC (stereo not given) | inconclusive: 44.7 µM [inhibitor, single point] | – |
| NS(=O)(=O)c1ccc(NC(=O)CCCC(=O)O)cc1 | inconclusive: 8.91 µM [inhibitor, single point] | – |
| COc1ccc(-[n+]2c(C)cc(/C=C3\Sc4ccccc4N3C)cc2C)cc1 | inactive | – |
| CCN(CC)c1ccc(/C=N/NC(=O)c2ccc([N+](=O)[O-])cc2)cc1 | inconclusive: 35.5 µM [inhibitor, partial curve, poor fit] | – |
| N#C/C(=C\c1ccccc1OCc1ccc(C(=O)O)cc1)c1ccccc1 | inactive | – |
| CC(=O)Nc1ccc(S(=O)(=O)NNc2cccc(C)c2)cc1 | inactive | – |
| COc1ccc(NC(=O)C2=NNC(=O)CC2)cc1S(=O)(=O)N1CCCCC1 | inconclusive: 10 µM [inhibitor, single point] | – |
| NC(=O)CC[C@@H]1NC(=O)[C@H](CO)NC(=O)c2cc([N+](=O)[O-])cc(I)c2OCC[C@@H](C(N)=O)NC1=O | inconclusive: 39.8 µM [inhibitor, single point] | – |
| CCCCCS(=O)(=O)CCCCCCCCCCn1c(-c2ccc(O)cc2)c(C)c2cc(O)ccc21 | inconclusive: 3.55 µM [inhibitor, partial curve, poor fit] | – |
| O=S(=O)(c1ccccc1)N1CCN(Cc2ccccc2C(F)(F)F)CC1 | inactive | – |
| COc1ccc(CN=Cc2c(C(=O)O)[nH]c3ccccc23)cc1 | inconclusive: 15.8 µM [inhibitor, partial curve] | – |
| C(=C/c1nccc2c1[nH]c1ccccc12)/c1ccc2c(c1)OCO2 | inactive | – |
| Cc1ccc(S(=O)(=O)N2CCC(=O)N(C(COCc3ccc(Cl)cc3)C(C)C)CC2)cc1 (stereo not given) | inconclusive: 7.94 µM [inhibitor, single point] | – |
| O=c1oc(Nc2ccc(F)cc2)nc2ccccc12 | inconclusive: 20 µM [inhibitor, partial curve] | – |
| CCCCCOc1ccc(/C=c2\sc3ncnn3c2=O)cc1 | inconclusive: 35.5 µM [inhibitor, single point] | – |
